In the supplement of paper PMC4683952:
Counter-ions that a name gives are not always drawn. The list shows a part of the results. Cut-off read from the data, not from the text of the source: active = 2.5 or more and inactive = the rest. Single values are uncertain here, since repeats match poorly.

What follows are compounds tested on Lgr5 (MarsCy1-Lgr5-EGFP, U2OS) (assay: cell-surface Lgr5 expression (SCi1 fluorescence, background-subtracted) relative to WT control (fold of WT control); higher = more Lgr5 at the plasma membrane). Details: U2OS MarsCy1-Lgr5-EGFP stable; treatment time: overnight; library: Prestwick; 20 µM.

SMILES	cell-surface Lgr5 expression
NC(=O)NC1NC(=O)NC1=O (stereo unspecified) [Allantoin]	inactive: 1.51
CC(C)NCC(O)c1ccc(O)c(O)c1 (single isomer, unassigned; (-)) [(-)-Isoproterenol hydrochloride]	inactive: 2.26
O=C1C(O)=C([C@H]2CC[C@H](c3ccc(Cl)cc3)CC2)C(=O)c2ccccc21 [Atovaquone]	inactive: 2.19
Cc1ccccc1C(OCCN(C)C)c1ccccc1 (stereo unspecified) [Orphenadrine hydrochloride]	inactive: 0.562
COC(=O)C1=C(C)NC(C)=C(C(=O)OCCN(C)Cc2ccccc2)C1c1cccc([N+](=O)[O-])c1 (stereo unspecified) [Nicardipine hydrochloride]	inactive: 1.56
COC(=O)[C@H]1[C@H]2C[C@@H]3c4[nH]c5cc(OC)ccc5c4CCN3C[C@H]2C[C@@H](OC(=O)/C=C/c2cc(OC)c(OC)c(OC)c2)[C@@H]1OC [Rescinnamin]	inactive: 2.06
CCC1NC(=O)c2cc(S(N)(=O)=O)c(Cl)cc2N1 (stereo unspecified) [Quinethazone]	inactive: 1.03
COc1ccccc1N1CCN(CCCCNC(=O)c2ccc3ccccc3c2)CC1	active: 2.67
CC(O)(P(=O)(O)O)P(=O)(O)O [Etidronic acid, disodium salt]	inactive: 2.3
Cc1cnc(C(=O)NCCc2ccc(S(=O)(=O)NC(=O)NC3CCCCC3)cc2)cn1 [Glipizide]	inactive: 1.07
CN1CCOC(c2ccccc2)c2ccccc2C1 (stereo unspecified) [Nefopam hydrochloride]	inactive: 0.792
CN1CCC(=C2c3ccccc3CCc3sccc32)CC1 [Pizotifen malate]	inactive: 1.91
CCN(CC)CCOc1ccc(C(=C(Cl)c2ccccc2)c2ccccc2)cc1 [Clomiphene citrate (Z,E)]	inactive: 0.985
CCCCNc1ccc(C(=O)OCCN(C)C)cc1	inactive: 2.19
CN(C)[C@@H]1C(O)=C(C(=O)NCNCCCC[C@H](N)C(=O)O)C(=O)[C@@]2(O)C(O)=C3C(=O)c4c(O)cccc4[C@@](C)(O)[C@H]3C[C@@H]12 [Lymecycline]	inactive: 1.42
COc1ccccc1N1CCN(CCCNc2cc(=O)n(C)c(=O)n2C)CC1 [Urapidil hydrochloride]	inactive: 0.807
CCC(=O)OCC(=O)[C@@]1(OC(=O)CC)[C@@H](C)C[C@H]2[C@@H]3CCC4=CC(=O)C=C[C@]4(C)[C@@]3(Cl)[C@@H](O)C[C@@]21C [Beclomethasone dipropionate]	active: 5
O=C(/C=C/C=C/c1ccc2c(c1)OCO2)N1CCCCC1 [Piperine]	inactive: 1.29
CCN(CC)Cc1cc(Nc2ccnc3cc(Cl)ccc23)ccc1O [Amodiaquin dihydrochloride dihydrate]	inactive: 0.45
CC(C)NCC(O)c1cc(O)cc(O)c1 (stereo unspecified) [Metaproterenol sulfate, orciprenaline sulfate]	active: 3.51
C#CCN(C)CCCOc1ccc(Cl)cc1Cl [Clorgyline hydrochloride]	inactive: 1.45
O=C(O)CN(CCN(CC(=O)O)CC(=O)O)CCN(CC(=O)O)CC(=O)O [Pentetic acid]	inactive: 2.03

SMILES	cell-surface Lgr5 expression
Cn1c(=O)c2c(ncn2CCO)n(C)c1=O [Etofylline]	inactive: 1.27
O=C1OC(CN2CCOCC2)CN1/N=C/c1ccc([N+](=O)[O-])o1 (stereo unspecified) [Furaltadone hydrochloride]	active: 3.81
CNCCCN1c2ccccc2CCc2ccccc21 [Desipramine hydrochloride]	inactive: 1.2
O=C(O)[C@]1(O)C[C@@H](O)[C@@H](O)[C@H](O)C1 [Quinic acid]	inactive: 1.7
Cc1cccc(Nc2ccccc2C(=O)O)c1C [Mefenamic acid]	inactive: 1.12
C[n+]1ccccc1/C=N/O [Pralidoxime chloride]	inactive: 2.1
CCN(CC)CCNC(=O)COc1ccc(OC)cc1 [Mefexamide hydrochloride]	inactive: 1.58
Clc1ccc(C(Cn2ccnc2)OCc2csc3c(Cl)cccc23)c(Cl)c1 (stereo unspecified) [Sertaconazole nitrate]	inactive: 1.21
CC(=O)OCC1=C(C(=O)O)N2C(=O)[C@@H](NC(=O)Cc3cccs3)[C@H]2SC1 [Cephalothin sodium salt]	inactive: 1.62
CC1(C)S[C@@H]2[C@H](NC(=O)Cc3ccccc3)C(=O)N2[C@H]1C(=O)O [Benzathine benzylpenicillin]	inactive: 1.28
CC1(C)S[C@@H]2[C@H](NC(=O)Cc3ccccc3)C(=O)N2[C@H]1C(=O)O [Benzylpenicillin sodium]	inactive: 0.762
O=C1CCC(N2C(=O)c3ccccc3C2=O)C(=O)N1 (stereo unspecified) [Thalidomide]	inactive: 2.19
NCC[C@H](O)C(=O)N[C@@H]1C[C@H](N)[C@@H](O[C@H]2O[C@H](CN)[C@@H](O)[C@H](O)[C@H]2O)[C@H](O)[C@H]1O[C@H]1O[C@H](CO)[C@@H](O)[C@H](N)[C@H]1O [Amikacin hydrate]	inactive: 0.933
CN1CCC(OC(c2ccccc2)c2ccccc2)CC1 [Diphenylpyraline hydrochloride]	inactive: 1.61
Fc1ccc([C@@H]2CCNC[C@H]2COc2ccc3c(c2)OCO3)cc1 [Paroxetine Hydrochloride]	inactive: 1.8
CN(C)CCCN1c2ccccc2CCc2ccccc21 [Imipramine hydrochloride]	inactive: 1.12
NC(CO)C(=O)NNCc1ccc(O)c(O)c1O (stereo unspecified) [Benserazide hydrochloride]	inactive: 2.03
NCCC[C@H](N)CC(=O)N[C@H]1CNC(=O)[C@H]([C@H]2C[C@H](O)NC(N)=N2)NC(=O)/C(=C/NC(N)=O)NC(=O)[C@H](CO)NC(=O)[C@H](CO)NC1=O [Viomycin sulfate]	inactive: 1.65
O=C(O)CCCC[C@@H]1SC[C@@H]2NC(=O)N[C@@H]21 [Biotin]	inactive: 1.16
C[C@@]1(O)CCOC(=O)C1 [Mevalonic-D, L acid lactone]	inactive: 2.37
COCC(=O)Nc1c(I)c(C(=O)NCC(O)CO)c(I)c(C(=O)N(C)CC(O)CO)c1I (stereo unspecified) [Iopromide]	inactive: 2.39
CC1COc2c(N3CCN(C)CC3)c(F)cc3c(=O)c(C(=O)O)cn1c23 (stereo unspecified) [Ofloxacin]	inactive: 1.14

SMILES	cell-surface Lgr5 expression
C[C@H](CCC(=O)O)[C@H]1CC[C@H]2[C@@H]3CC[C@@H]4C[C@H](O)CC[C@]4(C)[C@H]3CC[C@]12C [Lithocholic acid]	active: 2.6
CC(=O)SCC(Cc1ccccc1)C(=O)NCC(=O)OCc1ccccc1 (stereo unspecified) [Racecadotril]	inactive: 2.08
COC(=O)C1=C(C)NC(C)=C(C(=O)OC(C)C)C1c1cccc2nonc12 (stereo unspecified) [Isradipine]	inactive: 1.08
Cn1cnc([N+](=O)[O-])c1Sc1ncnc2[nH]cnc12 [Azathioprine]	active: 3.3
COc1c2c(nc3ccccc13)OC(C(C)(O)CO)C2 (stereo unspecified) [Dubinidine]	inactive: 1.31
CC(C)C(=O)Nc1ccc([N+](=O)[O-])c(C(F)(F)F)c1 [Flutamide]	inactive: 0.695
CN1Cc2c(N)cccc2C(c2ccccc2)C1 (stereo unspecified) [Nomifensine maleate]	inactive: 1.1
CCN[C@@H]1C[C@H](N)[C@@H](O[C@H]2OC(CN)=CC[C@H]2N)[C@H](O)[C@H]1O[C@H]1OC[C@](C)(O)[C@H](NC)[C@H]1O [Netilmicin sulfate]	inactive: 1.65
c1ccc(CNc2ncnc3nc[nH]c23)cc1 [Aminopurine, 6-benzyl]	inactive: 2.06
CCOC(=O)[C@@](C)(N)Cc1ccc(O)c(O)c1 [Methyldopate hydrochloride]	inactive: 1.26
O=C(c1ccccc1)c1ccc2n1CCC2C(=O)O (stereo unspecified) [Ketorolac tromethamine]	inactive: 1.76
COc1ccccc1OCC(O)COC(N)=O (stereo unspecified) [Methocarbamol]	inactive: 1.47
Cc1cc(N)c2ccccc2[n+]1CCCCCCCCCC[n+]1c(C)cc(N)c2ccccc21 [Dequalinium dichloride]	inactive: 1.25
CC[C@@H](CO)NCCN[C@@H](CC)CO [Ethambutol dihydrochloride]	inactive: 1.06
CC(=O)OCC(=O)[C@@]1(OC(C)=O)[C@@H](C)C[C@H]2[C@@H]3C[C@H](F)C4=CC(=O)C=C[C@]4(C)[C@@]3(F)[C@@H](O)C[C@@]21C [Diflorasone Diacetate]	active: 3.65
CCCOc1ccc(C(=O)OCCN(CC)CC)cc1N [Proparacaine hydrochloride]	active: 3.5
C#C[C@]1(O)CC[C@H]2[C@@H]3CCC4=CC(=O)CC[C@@H]4[C@H]3CC[C@@]21CC [Norgestrel-(-)-D]	inactive: 1.93
N=C(N)NCCN1CCCCCCC1 [Guanethidine sulfate]	inactive: 0.874
CC1(C)[C@@H](OC(=O)CCC(=O)O)CC[C@]2(C)[C@H]3C(=O)C=C4[C@@H]5C[C@@](C)(C(=O)O)CC[C@]5(C)CC[C@@]4(C)[C@]3(C)CC[C@@H]12 [Carbenoxolone disodium salt]	active: 4.26
CC(CN(C)C)CN1c2ccccc2Sc2ccccc21 (stereo unspecified) [Trimeprazine tartrate]	inactive: 1.65
C=CCOC(Cn1ccnc1)c1ccc(Cl)cc1Cl (stereo unspecified) [Enilconazole]	inactive: 1.89
O=C(/C=C/c1ccc(O)c(O)c1)O[C@@H]1C[C@](O)(C(=O)O)C[C@@H](O)[C@H]1O [Chlorogenic acid]	inactive: 1.88

In a second layout: results already given

| SMILES | cell-surface Lgr5 expression |
| --- | --- |
| C#C[C@]1(O)CC[C@H]2[C@@H]3CCC4=CC(=O)CC[C@@H]4[C@H]3CC[C@@]21CC [Norgestrel-(-)-D] | inactive: 1.93 |
| N=C(N)NCCN1CCCCCCC1 [Guanethidine sulfate] | inactive: 0.874 |
| CC1(C)[C@@H](OC(=O)CCC(=O)O)CC[C@]2(C)[C@H]3C(=O)C=C4[C@@H]5C[C@@](C)(C(=O)O)CC[C@]5(C)CC[C@@]4(C)[C@]3(C)CC[C@@H]12 [Carbenoxolone disodium salt] | active: 4.26 |
